The name of at least one read-out is uncertain.
Experiment: Dosing formulation stability (physical, potency, impurity profile)
Format: physicochemical
Protocol: 5 mg/mL of test compound was formulated with 10% Dimethylacetamide (DMA), 30% Propylene Glycol, 35% PEG-300, 25% water (H2O). The formulation solution was stored at 4° C. and 25° C. The samples were retrieved at the following time points: 1 day, 3 days, 5 days, 7 days, 10 days and 14 days. The sample retrieved at each time point was examined visually observation of the physical state (texture and color) prior to sample preparation for analysis for physical stability. For chemical stability, the sample was diluted 1:250 dilution with acetonitrile (ACN) for potency analysis, and to 100 ug/mL final solution for impurity profile. The sample were prepared in triplication for potency analysis. The samples were then injected to HPLC for the determination of test compound concentration and its impurity profile. An Agilent 1260 Infinity II Lab LC Series HPLC system was used including 1260 Quat pump, 1260 vial autosampler, ICC column oven, and 1260 DAD WR detector. The chromatographic separation was achieved by a Phenomenex Synergi Polar RP column (150×4.6 mm, 4 μm, 80 Å). The flow rate was 1 mL/min and the detection was set at 254 nm. Injection volume was 10 uL, otherwise specified. The mobile phase consisted A, water with 0.1% trifluoroacetic acid and B, acetonitrile with 0.1% trifluoroacetic acid. […] For impurity profile, the gradient was A/B (99:1) from 0 minute; to A/B (1:99) from 0 to 15 minutes; A/B (1:99) from 15 to 18 minutes; to A/B (99:1) from 18 to 18.1 minutes; A/B (99:1) from 18.1 to 20 minutes. Data acquisition and peak integrations were obtained by OpenLAB CDS Version 2.4 (Agilent) operating with Windows (Microsoft).
Physical and chemical stability of dosing formulation lead to the investigation of potential impurities upon storage at various temperatures. The stability results can be used to assess the appropriate storage conditions and shelf life of a formulation, and can provide important information for drug formulation development, nonclinical, and clinical studies, especially on-going efficacy studies. The dosing formulation in these experiments contained 5 mg/mL test compound 1, with 10% Dimethylacetamide (DMA), 30% Propylene Glycol, 35% PEG-300, 25% water (H2O). The dosing formulation was stored at 4° C. and 25° C. The samples were retrieved at the following time points: 1 day and 3 days. The dosing formulation was diluted and analyzed for potency and impurity profile using reverse phase high pressure liquid chromatography. The impurity profile was described as the relative percent peak area of each peak detected.

## COc1cc2c(NC3CCS(=O)(=O)CC3)nc(N3CCC(F)(F)CC3)nc2cc1OCCCN1CCCC1 [Compound 1, 4-((2-(4,4-difluoropiperidin-1-yl)-6-methoxy-7-(3-(pyrrolidin-1-yl)propoxy)quinazolin-4-yl)amino)tetrahydro-2H-thiopyran 1,1-dioxide]
4° C., day 0, vs time zero
  Recovery: 100.0%
4° C., day 1, vs time zero
  Recovery: 100.2%
4° C., day 3, vs time zero
  Recovery: 101.6%
25° C., day 0, vs time zero
  Recovery: 100.0%
25° C., day 1, vs time zero
  Recovery: 98.4%
25° C., day 3, vs time zero
  Recovery: 109.5%
